Values from PubChem BioAssay AID1259308 (NCATS, 2017).

Purpose: 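Knock-downs that increase output of a recombinant reporter protein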 (primary screen)
Cell system: human HEK293 embryonic kidney cells stably expressing firefly luciferase (HEK-CMV-Luc2-Hygro)
Reagent: single siRNA against human genes, 0.8 pmol siRNA per well
Duration: 72 h
Measurement: 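Reporter luminescence and viable-cell signal on separate replicate plates, given as percent of non-targeting control and median/MAD z-scores, plus per-cell luciferase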
Reading the numbers: total luciferase, z-score and total luciferase, % of control: higher = more reporter protein produced
Rule for the call: 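An siRNA counts as active if its total luciferase robust z-score exceeds 3; genes with two or more such siRNAs out of three were retested with fresh siRNAs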
Calls: active = raised luciferase; inactive = no rise
Shown is a random part of about 59,000 reagents. In the full data, about 1,510 (2.6%) were called active. 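Calls use total luciferase alone and ignore viability, so some active siRNAs may act by altering cell number.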 A number with no mark means an inactive call. The numbers tell different reagents against one gene apart. Further read-outs or replicates are left out here.

Target gene | siRNA no. | total luciferase, z-score | total luciferase, % of control
IQCE (IQ motif containing E) | 1 | 0.73 | 96.4
IQCE (IQ motif containing E) | 2 | 1.9 | 120
IQCE (IQ motif containing E) | 3 | -0.81 | 65.8
H2ACP1 (H2AC histone family pseudogene 1) | 1 | 0.867 | 99.1
H2ACP1 (H2AC histone family pseudogene 1) | 2 | -0.929 | 63.4
H2ACP1 (H2AC histone family pseudogene 1) | 3 | 0.0184 | 82.3
SLC7A7 | 1 | -0.0369 | 81.2
SLC7A7 | 2 | 0.832 | 98.4
SLC7A7 | 3 | -0.99 | 62.2
MRPS26 (mitochondrial ribosomal protein S26) | 1 | -0.619 | 69.6
MRPS26 (mitochondrial ribosomal protein S26) | 2 | -0.572 | 70.5
MRPS26 (mitochondrial ribosomal protein S26) | 3 | -1.86 | 44.8
NHLH2 (nescient helix-loop-helix 2) | 1 | -0.472 | 72.5
NHLH2 (nescient helix-loop-helix 2) | 2 | -1.07 | 60.6
NHLH2 (nescient helix-loop-helix 2) | 3 | 0.905 | 99.9
APOC1 (apolipoprotein C1) | 1 | -0.0816 | 80.3
APOC1 (apolipoprotein C1) | 2 | 0.421 | 90.3
APOC1 (apolipoprotein C1) | 3 | -1.39 | 54.2
PFN2 (profilin 2) | 1 | -0.964 | 62.7
PFN2 (profilin 2) | 2 | 0.341 | 88.7
PFN2 (profilin 2) | 3 | 1.31 | 108
EDRF1 (erythroid differentiation regulatory factor 1) | 1 | -2.33 | 35.5
EDRF1 (erythroid differentiation regulatory factor 1) | 2 | 0.368 | 89.2
EDRF1 (erythroid differentiation regulatory factor 1) | 3 | -1.78 | 46.4
NFXL1 (nuclear transcription factor, X-box binding like 1) | 1 | -0.957 | 62.9
NFXL1 (nuclear transcription factor, X-box binding like 1) | 2 | 0.647 | 94.7
NFXL1 (nuclear transcription factor, X-box binding like 1) | 3 | 0.0527 | 82.9
C5AR1 (complement C5a receptor 1) | 1 | -0.161 | 78.7
C5AR1 (complement C5a receptor 1) | 2 | 0.471 | 91.3
C5AR1 (complement C5a receptor 1) | 3 | -1.79 | 46.3
VPS4A (vacuolar protein sorting 4 homolog A) | 1 | -1.45 | 53
VPS4A (vacuolar protein sorting 4 homolog A) | 2 | -1.53 | 51.6
VPS4A (vacuolar protein sorting 4 homolog A) | 3 | -0.719 | 67.6
EEF1B2P5 | 1 | -1.1 | 60
EEF1B2P5 | 2 | -1.02 | 61.6
EEF1B2P5 | 3 | 5.48 (active) | 191
ALKBH2 (alkB homolog 2, alpha-ketoglutarate dependent dioxygenase) | 1 | 0.26 | 87.1
ALKBH2 (alkB homolog 2, alpha-ketoglutarate dependent dioxygenase) | 2 | 0.837 | 98.5
ALKBH2 (alkB homolog 2, alpha-ketoglutarate dependent dioxygenase) | 3 | 0.491 | 91.6
FAM167A (family with sequence similarity 167 member A) | 1 | -0.44 | 73.1
FAM167A (family with sequence similarity 167 member A) | 2 | -0.515 | 71.6
FAM167A (family with sequence similarity 167 member A) | 3 | -0.768 | 66.6
NOS1 (nitric oxide synthase 1) | 1 | -0.0503 | 80.9
NOS1 (nitric oxide synthase 1) | 2 | -1.07 | 60.6
NOS1 (nitric oxide synthase 1) | 3 | -1.55 | 51
COX5B (cytochrome c oxidase subunit 5B) | 1 | -0.0549 | 80.8
COX5B (cytochrome c oxidase subunit 5B) | 2 | 0.375 | 89.4
COX5B (cytochrome c oxidase subunit 5B) | 3 | -1.46 | 52.9
AGRP (agouti related neuropeptide) | 1 | -2.22 | 37.7
AGRP (agouti related neuropeptide) | 2 | 1.33 | 108
AGRP (agouti related neuropeptide) | 3 | 0.956 | 101
GNB3 (G protein subunit beta 3) | 1 | 1.16 | 105
GNB3 (G protein subunit beta 3) | 2 | -0.294 | 76
GNB3 (G protein subunit beta 3) | 3 | -1.03 | 61.3
GSTA5 (glutathione S-transferase alpha 5) | 1 | -0.631 | 69.3
GSTA5 (glutathione S-transferase alpha 5) | 2 | -0.121 | 79.5
GSTA5 (glutathione S-transferase alpha 5) | 3 | -0.773 | 66.5

A portion taken from the entries so far, for reference:
Target gene | siRNA no. | total luciferase, z-score | total luciferase, % of control
NFXL1 (nuclear transcription factor, X-box binding like 1) | 2 | 0.647 | 94.7
NFXL1 (nuclear transcription factor, X-box binding like 1) | 3 | 0.0527 | 82.9
C5AR1 (complement C5a receptor 1) | 1 | -0.161 | 78.7
C5AR1 (complement C5a receptor 1) | 2 | 0.471 | 91.3
C5AR1 (complement C5a receptor 1) | 3 | -1.79 | 46.3
